# Measurements taken from ChEMBL document CHEMBL4513143, “CO-ADD screening of University of Natural Resources and Life (Austria) compounds”.
# This is one part of the list. Results with a measured potency or affinity are listed apart.
# Tested on: Acinetobacter baumannii
# Details: Concentration 32 ug.mL-1; ASSAY_TEST Inhibition of Bacterial Growth; detection method Absorption (OD600); MEDIA CAMHB; plate type 384well; NBS; CORNING #3640; time 18 hr
row,SMILES,Inhibition [%]
1,[N-]=[N+]=NC[C@H]1OC(O)[C@@H](O)[C@@H]1O (stereo partly specified),3.58
